Measured values from the supplement of paper PMC10849652.
The list shows a part of the results. Residues, ends and D or L forms follow the SMILES beside them. *: point of attachment. Cbz = O=C(OCc1ccccc1)*

Sequences of proteins named here, by UniProt entry; tags and fusion partners are left off. A change or cut given only in a name is not applied to a line headed by its entry.
UniProt Q9BXV9: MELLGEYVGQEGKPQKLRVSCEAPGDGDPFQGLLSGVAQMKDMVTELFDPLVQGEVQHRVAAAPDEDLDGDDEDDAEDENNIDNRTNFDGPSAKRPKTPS
UniProt Q04760: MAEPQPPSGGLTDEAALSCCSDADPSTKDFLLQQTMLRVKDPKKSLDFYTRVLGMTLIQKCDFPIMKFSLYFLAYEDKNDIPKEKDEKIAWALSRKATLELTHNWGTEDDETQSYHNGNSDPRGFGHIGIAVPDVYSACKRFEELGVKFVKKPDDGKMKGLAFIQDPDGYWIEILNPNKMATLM
UniProt Q9HAV7: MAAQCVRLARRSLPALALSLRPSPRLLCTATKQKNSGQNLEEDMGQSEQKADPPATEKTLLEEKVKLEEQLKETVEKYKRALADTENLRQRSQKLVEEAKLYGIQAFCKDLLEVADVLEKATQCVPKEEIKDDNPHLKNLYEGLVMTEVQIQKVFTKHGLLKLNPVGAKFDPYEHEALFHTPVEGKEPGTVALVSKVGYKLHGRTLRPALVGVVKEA
UniProt P28799: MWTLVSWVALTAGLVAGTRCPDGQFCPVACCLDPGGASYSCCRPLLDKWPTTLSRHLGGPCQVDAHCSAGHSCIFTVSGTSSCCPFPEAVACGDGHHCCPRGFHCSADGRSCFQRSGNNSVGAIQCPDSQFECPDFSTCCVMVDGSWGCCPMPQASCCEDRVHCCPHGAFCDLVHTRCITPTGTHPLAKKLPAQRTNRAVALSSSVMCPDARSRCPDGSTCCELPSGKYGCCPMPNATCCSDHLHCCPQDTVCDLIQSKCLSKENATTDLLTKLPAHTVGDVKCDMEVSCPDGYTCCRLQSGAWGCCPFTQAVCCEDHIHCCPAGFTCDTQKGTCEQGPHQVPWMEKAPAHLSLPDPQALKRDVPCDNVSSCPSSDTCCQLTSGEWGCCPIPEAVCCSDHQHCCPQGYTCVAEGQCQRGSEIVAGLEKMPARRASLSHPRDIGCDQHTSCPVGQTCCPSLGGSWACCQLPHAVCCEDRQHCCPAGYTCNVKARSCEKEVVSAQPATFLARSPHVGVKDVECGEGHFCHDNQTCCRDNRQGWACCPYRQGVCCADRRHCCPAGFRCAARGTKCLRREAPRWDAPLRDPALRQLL
UniProt Q9Y223: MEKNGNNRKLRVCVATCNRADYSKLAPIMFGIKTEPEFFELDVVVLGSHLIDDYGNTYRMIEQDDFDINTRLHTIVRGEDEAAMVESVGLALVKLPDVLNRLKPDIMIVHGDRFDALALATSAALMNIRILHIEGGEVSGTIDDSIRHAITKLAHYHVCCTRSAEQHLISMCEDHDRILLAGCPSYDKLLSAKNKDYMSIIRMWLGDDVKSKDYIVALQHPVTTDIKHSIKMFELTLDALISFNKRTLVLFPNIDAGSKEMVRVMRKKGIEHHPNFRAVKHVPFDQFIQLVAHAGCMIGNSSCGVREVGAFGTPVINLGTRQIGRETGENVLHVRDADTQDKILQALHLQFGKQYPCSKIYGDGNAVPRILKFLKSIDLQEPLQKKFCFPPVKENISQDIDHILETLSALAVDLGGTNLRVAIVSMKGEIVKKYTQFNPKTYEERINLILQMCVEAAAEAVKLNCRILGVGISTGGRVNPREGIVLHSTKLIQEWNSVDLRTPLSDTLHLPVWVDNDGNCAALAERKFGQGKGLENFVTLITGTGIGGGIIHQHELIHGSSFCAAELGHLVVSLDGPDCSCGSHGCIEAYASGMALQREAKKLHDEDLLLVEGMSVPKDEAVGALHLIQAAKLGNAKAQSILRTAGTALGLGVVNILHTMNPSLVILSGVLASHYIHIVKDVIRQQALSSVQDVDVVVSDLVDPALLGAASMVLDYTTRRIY
UniProt Q9BYB4: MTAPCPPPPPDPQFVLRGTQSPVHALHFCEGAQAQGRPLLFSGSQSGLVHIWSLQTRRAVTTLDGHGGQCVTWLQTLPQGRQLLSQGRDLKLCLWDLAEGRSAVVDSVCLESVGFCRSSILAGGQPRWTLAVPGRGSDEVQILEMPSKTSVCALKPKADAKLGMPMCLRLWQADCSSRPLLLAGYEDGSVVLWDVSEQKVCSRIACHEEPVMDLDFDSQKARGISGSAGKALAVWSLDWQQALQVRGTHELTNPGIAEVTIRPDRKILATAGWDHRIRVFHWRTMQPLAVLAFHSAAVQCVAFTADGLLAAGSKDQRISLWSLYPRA
UniProt Q9HC38: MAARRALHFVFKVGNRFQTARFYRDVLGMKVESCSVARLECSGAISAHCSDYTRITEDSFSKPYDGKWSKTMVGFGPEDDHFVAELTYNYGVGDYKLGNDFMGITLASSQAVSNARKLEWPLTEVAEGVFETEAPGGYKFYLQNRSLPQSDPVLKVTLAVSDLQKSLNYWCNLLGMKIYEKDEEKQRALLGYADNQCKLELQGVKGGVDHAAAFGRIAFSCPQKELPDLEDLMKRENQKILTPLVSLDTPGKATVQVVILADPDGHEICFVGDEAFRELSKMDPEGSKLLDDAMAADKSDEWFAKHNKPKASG
UniProt Q5VW38: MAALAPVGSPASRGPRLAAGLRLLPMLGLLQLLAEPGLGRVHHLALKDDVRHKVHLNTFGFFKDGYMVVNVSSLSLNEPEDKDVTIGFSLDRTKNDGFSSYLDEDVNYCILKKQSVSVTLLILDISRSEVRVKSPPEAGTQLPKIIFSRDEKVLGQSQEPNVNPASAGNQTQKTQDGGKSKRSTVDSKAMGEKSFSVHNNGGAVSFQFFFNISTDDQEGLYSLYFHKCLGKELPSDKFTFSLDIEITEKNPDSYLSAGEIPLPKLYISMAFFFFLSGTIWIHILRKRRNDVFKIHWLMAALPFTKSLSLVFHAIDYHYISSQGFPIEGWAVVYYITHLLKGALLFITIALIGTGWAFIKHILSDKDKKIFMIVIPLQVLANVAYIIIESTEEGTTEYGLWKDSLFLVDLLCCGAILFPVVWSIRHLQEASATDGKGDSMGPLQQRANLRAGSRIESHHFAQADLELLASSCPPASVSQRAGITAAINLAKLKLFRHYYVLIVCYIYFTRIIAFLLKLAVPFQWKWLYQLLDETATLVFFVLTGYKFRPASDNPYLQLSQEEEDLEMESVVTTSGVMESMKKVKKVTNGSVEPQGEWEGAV
UniProt Q92896: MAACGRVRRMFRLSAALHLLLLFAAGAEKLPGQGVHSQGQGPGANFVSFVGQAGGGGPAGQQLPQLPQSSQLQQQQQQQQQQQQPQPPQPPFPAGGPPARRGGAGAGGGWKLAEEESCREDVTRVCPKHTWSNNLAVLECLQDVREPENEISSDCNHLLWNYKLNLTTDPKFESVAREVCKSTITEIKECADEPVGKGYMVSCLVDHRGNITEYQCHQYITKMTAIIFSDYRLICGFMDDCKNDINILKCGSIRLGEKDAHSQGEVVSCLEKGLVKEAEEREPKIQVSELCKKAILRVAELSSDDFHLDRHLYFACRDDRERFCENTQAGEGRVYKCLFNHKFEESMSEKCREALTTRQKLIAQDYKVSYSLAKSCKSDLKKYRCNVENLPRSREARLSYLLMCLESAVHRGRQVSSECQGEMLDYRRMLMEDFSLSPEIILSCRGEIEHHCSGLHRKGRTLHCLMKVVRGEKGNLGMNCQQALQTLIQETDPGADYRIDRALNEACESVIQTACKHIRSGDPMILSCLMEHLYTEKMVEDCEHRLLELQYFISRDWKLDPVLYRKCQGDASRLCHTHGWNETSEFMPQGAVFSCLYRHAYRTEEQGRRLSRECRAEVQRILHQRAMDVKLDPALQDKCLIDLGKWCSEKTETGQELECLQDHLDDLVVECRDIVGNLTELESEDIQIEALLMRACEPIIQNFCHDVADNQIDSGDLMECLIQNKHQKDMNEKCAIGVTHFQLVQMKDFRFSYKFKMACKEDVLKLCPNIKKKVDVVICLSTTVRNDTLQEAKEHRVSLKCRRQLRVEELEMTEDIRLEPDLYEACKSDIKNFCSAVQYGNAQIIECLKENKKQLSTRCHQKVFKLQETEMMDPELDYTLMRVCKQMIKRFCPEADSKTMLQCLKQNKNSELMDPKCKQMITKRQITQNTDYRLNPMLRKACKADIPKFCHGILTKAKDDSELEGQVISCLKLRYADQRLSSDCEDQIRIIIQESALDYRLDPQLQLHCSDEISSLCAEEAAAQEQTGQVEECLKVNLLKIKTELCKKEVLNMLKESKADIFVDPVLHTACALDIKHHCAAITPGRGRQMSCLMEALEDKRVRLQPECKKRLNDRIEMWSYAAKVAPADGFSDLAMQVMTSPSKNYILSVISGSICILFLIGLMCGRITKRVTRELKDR
UniProt Q12849: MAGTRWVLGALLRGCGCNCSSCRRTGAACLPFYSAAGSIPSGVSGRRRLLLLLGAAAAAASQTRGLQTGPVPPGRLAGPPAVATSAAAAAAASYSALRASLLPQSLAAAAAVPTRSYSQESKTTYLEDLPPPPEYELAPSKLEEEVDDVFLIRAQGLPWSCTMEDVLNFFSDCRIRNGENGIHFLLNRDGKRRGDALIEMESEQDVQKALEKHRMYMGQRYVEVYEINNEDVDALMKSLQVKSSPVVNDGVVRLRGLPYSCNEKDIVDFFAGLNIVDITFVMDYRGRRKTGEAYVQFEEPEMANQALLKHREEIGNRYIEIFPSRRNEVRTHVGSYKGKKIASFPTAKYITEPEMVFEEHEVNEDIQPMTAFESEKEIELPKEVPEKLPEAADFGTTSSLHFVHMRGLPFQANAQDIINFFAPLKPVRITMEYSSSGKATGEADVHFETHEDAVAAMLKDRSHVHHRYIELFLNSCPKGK
UniProt Q9HC44: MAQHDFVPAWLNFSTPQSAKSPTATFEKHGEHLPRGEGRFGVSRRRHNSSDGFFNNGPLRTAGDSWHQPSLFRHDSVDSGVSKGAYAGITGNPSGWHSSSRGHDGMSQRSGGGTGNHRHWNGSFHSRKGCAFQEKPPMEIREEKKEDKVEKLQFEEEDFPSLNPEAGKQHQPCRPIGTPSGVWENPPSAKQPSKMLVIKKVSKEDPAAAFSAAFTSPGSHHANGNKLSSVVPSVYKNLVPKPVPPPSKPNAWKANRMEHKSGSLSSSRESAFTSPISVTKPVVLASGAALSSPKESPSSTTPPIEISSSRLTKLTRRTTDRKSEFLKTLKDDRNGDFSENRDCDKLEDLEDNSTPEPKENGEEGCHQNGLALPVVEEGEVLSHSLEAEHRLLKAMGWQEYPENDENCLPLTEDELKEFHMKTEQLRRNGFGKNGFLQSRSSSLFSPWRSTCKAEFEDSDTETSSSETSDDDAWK
UniProt P46926: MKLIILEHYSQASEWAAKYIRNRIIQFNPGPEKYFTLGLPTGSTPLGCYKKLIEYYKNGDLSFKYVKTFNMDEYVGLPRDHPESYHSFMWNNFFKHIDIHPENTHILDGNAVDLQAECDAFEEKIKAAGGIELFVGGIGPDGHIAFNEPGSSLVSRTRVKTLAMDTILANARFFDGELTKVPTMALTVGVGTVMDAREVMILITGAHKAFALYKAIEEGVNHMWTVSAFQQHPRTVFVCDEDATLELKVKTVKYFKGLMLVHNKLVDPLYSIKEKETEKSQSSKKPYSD
UniProt Q8N954: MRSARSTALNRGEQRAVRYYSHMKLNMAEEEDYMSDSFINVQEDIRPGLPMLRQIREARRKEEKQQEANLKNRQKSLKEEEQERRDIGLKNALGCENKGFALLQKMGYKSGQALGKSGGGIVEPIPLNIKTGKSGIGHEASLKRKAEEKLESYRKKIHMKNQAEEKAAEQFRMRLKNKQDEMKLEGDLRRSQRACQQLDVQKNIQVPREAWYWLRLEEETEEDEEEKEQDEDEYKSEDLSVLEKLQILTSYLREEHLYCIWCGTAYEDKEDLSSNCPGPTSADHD
UniProt P04899, whole entry, looked up: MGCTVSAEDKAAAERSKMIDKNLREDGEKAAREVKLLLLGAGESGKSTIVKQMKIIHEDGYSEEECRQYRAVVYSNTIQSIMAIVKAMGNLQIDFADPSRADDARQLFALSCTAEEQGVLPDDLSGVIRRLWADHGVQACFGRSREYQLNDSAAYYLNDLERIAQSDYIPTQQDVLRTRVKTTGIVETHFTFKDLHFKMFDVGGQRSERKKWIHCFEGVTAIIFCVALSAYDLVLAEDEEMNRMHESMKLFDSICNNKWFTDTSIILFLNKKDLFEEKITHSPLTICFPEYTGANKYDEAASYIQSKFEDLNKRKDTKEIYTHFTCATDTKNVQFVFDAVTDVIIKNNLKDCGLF

What was measured:
Assay in all cases: log2 fold change, soluble protein after heating vs DMSO (PISA); higher = thermal stabilisation; K562 cells, 10 uM, 30 min; active = over 0.2 and 3.5 SD of the protein, either way, in both replicates (recomputed)
erlotinib = compound: C#Cc1cccc(Nc2ncnc3cc(OCCOC)c(OCCOC)cc23)c1 [erlotinib]
Summary of the method: (§1)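 K562 cells at 2×10^6 cells/mL were exposed to 10 μM compound for 30 min, then aliquots were heated for 3 min across 48°C-58°C, pooled, and extracted in PBS containing 0.5% NP-40 at 4°C. The supernatant after 21,000xg for 90 min was taken as soluble protein and measured by TMTpro 16plex LC-MS/MS with channel sums equalised. Thermal stability is reported relative to control samples, with values from duplicates. Fold changes are given on a log2 scale.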

[1] = compound: C/C(=N\NC(=O)C1=CC(=CC=C1)S(=O)(=O)N2CCOCC2)/C3=C(C=CC(=C3)Cl)O
Summary of the method: as §1

[2] = compound: C1=CC(=C(C=C1Cl)C2=NC3=NC=CN=C3C(=N2)NC4=CC=NC=C4)F
Summary of the method: as §1

[3] = compound: C1=CC(=CC=C1C2=NC3=C(N2)C=C(C=C3)C(=O)N)OC4=CC=C(C=C4)Cl
Summary of the method: as §1

[4] = compound: C1=CC2=C(C=CC(=C2)/C=C\3/C(=O)NC(=NCC4=CC=CS4)S3)N=C1
Summary of the method: as §1

[5] = compound: C1=CC2=NC=CN=C2C=C1/C=C/3\C(=O)NC(=O)S3
Summary of the method: as §1

[6] = compound: C1=CC=C(C=C1)C2=NC(=C(N2)C3=CC=NC=C3)C4=CC(=C(C=C4)Cl)O
Summary of the method: as §1

[7] = compound: C1=CC=C2C(=C1)C3=NNC4=CC=CC(=C43)C2=O
Summary of the method: as §1

[8] = compound: C1CCN(C1)C(=O)NC2=CC=CC(=C2)NC3=NC=C(C(=N3)NCCC4=CN=CN4)Br
Summary of the method: as §1

[9] = compound: C1CN(CCC1(CC2=CC=C(C=C2)Cl)N)C3=NC=NC4=C3C=CN4
Summary of the method: as §1

IRAK-1-4 Inhibitor I = compound: C1COCCN1CCN2C3=CC=CC=C3N=C2NC(=O)C4=CC(=CC=C4)[N+](=O)[O-] [IRAK-1-4 Inhibitor I]
Summary of the method: as §1

ibrutinib = compound: C=CC(=O)N1CCC[C@@H](n2nc(-c3ccc(Oc4ccccc4)cc3)c3c(N)ncnc32)C1 [ibrutinib]
Summary of the method: as §1

[10] = compound: CC(=O)c1cnc2ccc(-c3cc(Cl)c(O)c(Cl)c3)nc2c1N[C@H]1CC[C@H](CN(C)C)CC1
Summary of the method: as §1

ralimetinib = compound: CC(C)(C)Cn1c(N)nc2ccc(-c3[nH]c(C(C)(C)C)nc3-c3ccc(F)cc3)nc21 [ralimetinib]
Summary of the method: as §1

[11] = compound: CC(C)(O)CC(=O)NCCn1ccc2ncnc(Nc3ccc(Oc4cccc(C(F)(F)F)c4)c(Cl)c3)c21
Summary of the method: as §1

[12] = compound: CC(C)C1=C2N=C(C=C(N2N=C1)NCC3=CC=CC=C3)NCCCCCCN
Summary of the method: as §1

[13] = compound: CC(C)C[C@@H](C=O)NC(=O)[C@H](CC(C)C)NC(=O)[C@H](CC(C)C)NC(=O)OCc1ccccc1
Summary of the method: as §1

pinometostat = compound: CC(C)N(C[C@H]1O[C@@H](n2cnc3c(N)ncnc32)[C@H](O)[C@@H]1O)[C@H]1C[C@@H](CCc2nc3cc(C(C)(C)C)ccc3[nH]2)C1 [pinometostat]
Summary of the method: as §1

[14] = compound: CC1=C(C(CC(=O)N1)C2=CC=C(C=C2)C(F)(F)F)C(=O)NC3=C(C=C4C(=C3)C=NN4)F
Summary of the method: as §1

[15] = compound: CC1=C(C2=C(C=C1)C(=O)C3=CC=CC=C3N2CCCN)C
Summary of the method: as §1

Measured: log2 fold change

GON7 (UniProt Q9BXV9)
inactive: erlotinib 0.031 | [1] -0.092 | [2] 0.147 | [3] 0.033 | [4] -0.086 | [5] 0.039 | [6] -0.028 | [7] -0.127 | [8] -0.014 | [9] -0.069 | IRAK-1-4 Inhibitor I -0.013 | ibrutinib -0.042 | [10] -0.215 | ralimetinib -0.03 | [11] 0.02 | [12] 0.171 | [13] -0.042 | pinometostat 0.044 | [14] 0.023 | [15] 0.089

GLO1 (UniProt Q04760)
inactive: erlotinib 0.009 | [1] 0.028 | [2] 0.085 | [3] -0.013 | [4] 0.003 | [5] -0.004 | [6] 0.011 | [7] -0.001 | [8] 0.031 | [9] 0.048 | IRAK-1-4 Inhibitor I 0.03 | ibrutinib 0.012 | [10] -0.004 | ralimetinib -0.028 | [11] -0.022 | [12] -0.001 | [13] -0.063 | pinometostat -0.06 | [14] 0.125 | [15] 0.001

GRPEL1 (UniProt Q9HAV7)
inactive: erlotinib -0.016 | [1] 0.008 | [2] 0.035 | [3] -0.012 | [4] 0.012 | [5] -0.002 | [6] -0.002 | [7] -0.002 | [8] 0.018 | [9] 0.005 | IRAK-1-4 Inhibitor I 0.02 | ibrutinib -0.026 | [10] 0.005 | ralimetinib -0.055 | [11] 0 | [12] -0.006 | [13] -0.009 | pinometostat -0.062 | [14] -0.017 | [15] 0.027

GRN (UniProt P28799)
inactive: erlotinib 0.04 | [1] 0.014 | [2] -0.093 | [3] -0.15 | [4] 0.034 | [5] 0.017 | [6] -0.086 | [7] -0.211 | [8] 0.024 | [9] -0.049 | IRAK-1-4 Inhibitor I 0.077 | ibrutinib -0.031 | [10] -0.049 | ralimetinib 0.072 | [11] 0.003 | [12] 0.115 | [13] 0.03 | pinometostat -0.027 | [14] -0.09 | [15] 0.021

GNE isoform 2 (UniProt Q9Y223)
inactive: erlotinib -0.029 | [1] 0.019 | [2] 0.02 | [3] 0.065 | [4] 0.045 | [5] -0.004 | [6] -0.072 | [7] -0.01 | [8] -0.016 | [9] 0.067 | IRAK-1-4 Inhibitor I 0.016 | ibrutinib -0.019 | [10] 0.079 | ralimetinib -0.055 | [11] -0.145 | [12] 0.004 | [13] 0.049 | pinometostat 0.002 | [14] -0.044 | [15] 0.21

GNB1L (UniProt Q9BYB4)
inactive: erlotinib 0.007 | [1] 0.017 | [2] 0.103 | [3] 0.081 | [4] 0.003 | [5] 0.025 | [6] -0.003 | [7] -0.038 | [8] -0.039 | [9] 0.019 | IRAK-1-4 Inhibitor I 0.01 | ibrutinib 0.03 | [10] -0.007 | ralimetinib -0.06 | [11] -0.027 | [12] 0.02 | [13] 0.005 | pinometostat -0.036 | [14] 0.028 | [15] 0.053

GLOD4 isoform 2 (UniProt Q9HC38)
inactive: erlotinib 0.007 | [1] 0.064 | [2] 0.04 | [3] -0.023 | [4] 0.049 | [5] 0.01 | [6] 0.002 | [7] 0.029 | [8] 0.012 | [9] -0.009 | IRAK-1-4 Inhibitor I 0 | ibrutinib -0.025 | [10] 0.006 | ralimetinib -0.004 | [11] -0.067 | [12] -0.097 | [13] 0.005 | pinometostat -0.027 | [14] -0.017 | [15] 0.036

GPR107 (UniProt Q5VW38)
inactive: erlotinib -0.049 | [1] -0.024 | [2] 0.028 | [3] 0 | [4] -0.018 | [5] 0.006 | [6] 0.011 | [7] -0.029 | [8] -0.013 | [9] 0.057 | IRAK-1-4 Inhibitor I 0.102 | ibrutinib 0.013 | [10] -0.035 | ralimetinib -0.05 | [11] -0.04 | [12] 0.098 | [13] -0.008 | pinometostat 0.017 | [14] -0.008 | [15] -0.007

GLG1 isoform 2 (UniProt Q92896)
inactive: erlotinib -0.002 | [1] 0.027 | [2] 0.1 | [3] 0.005 | [4] -0.022 | [5] 0.062 | [6] -0.004 | [7] -0.04 | [8] -0.012 | [9] 0.054 | IRAK-1-4 Inhibitor I 0.017 | ibrutinib 0.022 | [10] 0.009 | ralimetinib -0.053 | [11] -0.015 | [12] -0.032 | [13] 0 | pinometostat -0.047 | [14] 0.022 | [15] -0.006

GRSF1 (UniProt Q12849)
inactive: erlotinib -0.044 | [1] 0 | [2] -0.057 | [3] -0.152 | [4] -0.03 | [5] -0.005 | [6] -0.025 | [7] -0.079 | [8] -0.079 | [9] -0.033 | IRAK-1-4 Inhibitor I -0.118 | ibrutinib 0.063 | [10] -0.122 | ralimetinib -0.009 | [11] -0.069 | [12] -0.241 | [13] 0.038 | pinometostat 0.099 | [14] 0.017 | [15] -0.494

GPBP1L1 (UniProt Q9HC44)
inactive: erlotinib 0.009 | [1] -0.087 | [2] 0.031 | [3] 0.014 | [4] -0.013 | [5] -0.001 | [6] -0.134 | [7] -0.054 | [8] 0.007 | [9] -0.019 | IRAK-1-4 Inhibitor I -0.002 | ibrutinib 0.031 | [10] 0 | ralimetinib -0.101 | [11] -0.019 | [12] -0.013 | [13] 0.032 | pinometostat 0.104 | [14] 0.053 | [15] -0.098

GNPDA1 (UniProt P46926)
inactive: erlotinib -0.007 | [1] 0.02 | [2] 0.02 | [3] 0 | [4] -0.009 | [5] 0.024 | [6] -0.055 | [7] -0.019 | [8] 0.017 | [9] 0.072 | IRAK-1-4 Inhibitor I 0.011 | ibrutinib 0.019 | [10] 0.021 | ralimetinib -0.041 | [11] -0.009 | [12] 0.065 | [13] -0.004 | pinometostat -0.051 | [14] 0.011 | [15] -0.006

GPATCH11 (UniProt Q8N954)
inactive: erlotinib 0.017 | [1] -0.026 | [2] -0.039 | [3] 0.046 | [4] 0.003 | [5] 0.104 | [6] -0.005 | [7] 0.045 | [8] -0.094 | [9] 0.073 | IRAK-1-4 Inhibitor I -0.018 | ibrutinib -0.053 | [10] -0.04 | ralimetinib -0.026 | [11] 0.015 | [12] 0.197 | [13] 0.031 | pinometostat -0.047 | [14] 0.038 | [15] -0.019

2 entries picked at random from the list so far:
GPATCH11 (UniProt Q8N954)
inactive: erlotinib 0.017 | [1] -0.026 | [2] -0.039 | [3] 0.046 | [4] 0.003 | [5] 0.104 | [6] -0.005 | [7] 0.045 | [8] -0.094 | [9] 0.073 | IRAK-1-4 Inhibitor I -0.018 | ibrutinib -0.053 | [10] -0.04 | ralimetinib -0.026 | [11] 0.015 | [12] 0.197 | [13] 0.031 | pinometostat -0.047 | [14] 0.038 | [15] -0.019

GRSF1 (UniProt Q12849)
inactive: erlotinib -0.044 | [1] 0 | [2] -0.057 | [3] -0.152 | [4] -0.03 | [5] -0.005 | [6] -0.025 | [7] -0.079 | [8] -0.079 | [9] -0.033 | IRAK-1-4 Inhibitor I -0.118 | ibrutinib 0.063 | [10] -0.122 | ralimetinib -0.009 | [11] -0.069 | [12] -0.241 | [13] 0.038 | pinometostat 0.099 | [14] 0.017 | [15] -0.494

Further entries follow:

GORASP2 isoform 3 (UniProt Q9H8Y8)
inactive: erlotinib 0 | [1] 0.21 | [2] -0.021 | [3] -0.146 | [4] -0.11 | [5] 0.013 | [6] -0.023 | [7] 0.136 | [8] 0.009 | [9] -0.114 | IRAK-1-4 Inhibitor I -0.101 | ibrutinib -0.006 | [10] 0.067 | ralimetinib 0.014 | [11] -0.165 | [12] 0.028 | [13] 0.054 | pinometostat 0.08 | [14] -0.012 | [15] 0.024

GNAI2 isoform 4 (UniProt P04899)
inactive: erlotinib -0.109 | [1] 0.025 | [2] -0.01 | [3] 0.033 | [4] -0.065 | [5] 0.042 | [6] 0.047 | [7] -0.009 | [8] -0.083 | [9] -0.012 | IRAK-1-4 Inhibitor I -0.01 | ibrutinib 0.042 | [10] 0.015 | ralimetinib 0.015 | [11] 0.061 | [12] 0.016 | [13] 0.016 | pinometostat -0.002 | [14] -0.043 | [15] 0.022
